Numbering of substitutions follows the chain as printed. Names may count otherwise. These are yes or no findings as the source states them, for the method shown. For some assays here: In cells and extracts the contact can be indirect. Some entries that bind do so weakly or less than the wild type. For some assays here: Sequences can lack the tags named with a protein.

Sequences of proteins named here, by UniProt entry; tags and fusion partners are left off. Residues count along the entry.
UniProt Q6UX71, residues 31-529: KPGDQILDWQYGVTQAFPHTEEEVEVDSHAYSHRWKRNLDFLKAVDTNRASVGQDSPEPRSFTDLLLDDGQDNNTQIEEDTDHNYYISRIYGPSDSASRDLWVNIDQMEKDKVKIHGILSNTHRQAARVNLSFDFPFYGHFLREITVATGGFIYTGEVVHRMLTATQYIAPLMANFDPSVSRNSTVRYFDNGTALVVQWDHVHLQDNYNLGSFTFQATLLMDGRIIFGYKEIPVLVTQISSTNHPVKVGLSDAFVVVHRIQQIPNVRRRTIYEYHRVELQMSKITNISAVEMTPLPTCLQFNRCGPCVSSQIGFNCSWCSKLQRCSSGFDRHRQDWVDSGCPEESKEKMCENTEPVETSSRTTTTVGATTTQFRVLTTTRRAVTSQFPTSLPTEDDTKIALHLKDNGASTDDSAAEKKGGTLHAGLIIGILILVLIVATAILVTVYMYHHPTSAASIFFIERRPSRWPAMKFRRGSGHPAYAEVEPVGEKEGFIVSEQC

Experiment [1] has as its target Rim-tagged PLXDC2 (human) (UniProt Q6UX71). Description: co-IP; cotransfected cells lysed in 1% Triton X-100 in HBSS; Rim-tagged protein purified on anti-Rim antibody beads, 4 hr at 4°C; eluted at pH 2.3; copurified receptors detected by anti-HA or by antibody specific to PLXDC1 or PLXDC2.
The target in experiment [2] is T1, Rim-tagged PLXDC1 (human) (UniProt Q8IUK5).
T1 sequence: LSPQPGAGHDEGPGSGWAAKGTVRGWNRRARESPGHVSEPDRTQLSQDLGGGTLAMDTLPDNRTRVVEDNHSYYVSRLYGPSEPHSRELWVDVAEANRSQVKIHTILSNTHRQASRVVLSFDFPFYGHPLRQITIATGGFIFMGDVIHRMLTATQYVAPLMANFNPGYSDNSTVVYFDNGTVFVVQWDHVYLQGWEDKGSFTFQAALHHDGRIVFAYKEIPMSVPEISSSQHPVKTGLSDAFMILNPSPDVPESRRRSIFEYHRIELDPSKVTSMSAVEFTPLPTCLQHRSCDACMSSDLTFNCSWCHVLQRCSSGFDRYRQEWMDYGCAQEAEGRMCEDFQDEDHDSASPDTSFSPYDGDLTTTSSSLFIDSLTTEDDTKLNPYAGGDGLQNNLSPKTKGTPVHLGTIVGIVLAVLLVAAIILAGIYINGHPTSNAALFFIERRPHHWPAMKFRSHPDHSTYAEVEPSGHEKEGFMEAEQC
The description is as above.

Experiment [3] deals with T2, PLXDC1 (plexin domain containing 1), epitope-tagged, on HEK293 cells (human) (UniProt Q8IUK5).
T2 sequence: T1 sequence
The experiment can be described thus: binding of a biotinylated ligand to transfected cells, detected with streptavidin-alkaline phosphatase; biotinylated PEDF (20 nM) added to transfected or control HEK293 cells on a fibronectin-coated dish in HBSS, 10 mM HEPES pH 7.5, 2 mg/ml BSA, room temperature, 1 hour; washed, fixed, streptavidin-AP, NBT/BCIP; only the binder purified.

Experiment [4] concerns the target PLXDC2 (plexin domain containing 2), epitope-tagged, on HEK293 cells (human) (UniProt Q6UX71). The description is as above.
Experiment [5] addresses T3, PLXDC1 fused to Cyan Fluorescent Protein at the C-terminus (human) (UniProt Q8IUK5).
T3 sequence: T1 sequence
Description: FRET or BRET; as the CFP-YFP FRET in membranes, PEDF added to the membrane suspension at time 0, signal followed over time; only the binder purified. (Bioluminescence resonance energy transfer reports proximity on the nanometre scale.)

The target in experiment [6] is T4, PLXDC1-C500S fused to CFP (human) (UniProt Q8IUK5).
T4 sequence: T1 sequence with C482S
The experiment is described as above.

Experiment [7] concerns the target T5, PLXDC1 in membranes of transfected HEK293 cells (copper phenanthroline crosslinking) (human) (UniProt Q8IUK5).
T5 sequence: T1 sequence
The experiment can be described thus: cross-linking; as the copper phenanthroline crosslinking, membranes incubated with PEDF for 3 hr at room temperature before oxidation; only the binder purified.

Experiment [8] has as its target T6, PLXDC1 fused to yellow fluorescent protein at the C-terminus (human) (UniProt Q8IUK5).
T6 sequence: T1 sequence
Description: FRET or BRET; CFP-YFP FRET (ratio of emissions at 530 nm over 470 nm) in membranes of HEK293 cells coexpressing the CFP and YFP fusions, HBSS/HEPES; some samples treated with 2 mM BMOE beforehand.

The target of experiment [9] is T7, PLXDC1-C500S fused to YFP (human) (UniProt Q8IUK5).
T7 sequence: T1 sequence with C482S
Described as above.

Take “HA-tagged PLXDC2 (from UniProt Q6UX71 31-529) (receptor)”: the binding result in [1] is listed as “binds”.

On to “untagged PLXDC2 (copurification) (from UniProt Q6UX71 31-529) (receptor)”, for which, in [2], the binding entry was “no binding”.

B1: biotinylated PEDF (ligand, UniProt P36955 20-418)
chain: QNPASPPEEGSPDPDSTGALVEEEDPFFKVPVNKLAAAVSNFGYDLYRVRSSTSPTTNVLLSPLSVATALSALSLGAEQRTESIIHRALYYDLISSPDIHGTYKELLDTVTAPQKNLKSASRIVFEKKLRIKSSFVAPLEKSYGTRPRVLTGNPRLDLQEINNWVQAQMKGKLARSTKEIPDEISILLLGVAHFKGQWVTKFDSRKTSLEDFYLDEERTVRVPMMSDPKAVLRYGLDSDLSCKIAQLPLTGSMSIIFFLPLKVTQNLTLIEESLTSEFIHDIDRELKTVQAVLTVPKLKLSYEGEVTKSLQEMKLQSLFDSPDFSKITGKPIKLTQVEHRAGFEWNEDGAGTTPSPGLQPAHLTFPLDYHLNQPFIFVLRDTDTGALLFIGKILDPRGP
modifications: biotin (sulfo-NHS-SS-biotin; sites not stated)
For the molecule B1, the binding result in [3] and in experiment [4] was “binds” in each case.

B2: Pigment Epithelium Derived Factor (PEDF), untagged (ligand, UniProt P36955 20-418)
chain: B1 chain
In the case of B2, the binding result in experiment [5], in experiment [6] and in experiment [7] was “binds” each time.

B3: PLXDC1 fused to Cyan Fluorescent Protein at the C-terminus (receptor, UniProt Q8IUK5 19-500)
chain: T1 sequence
Regarding B3, in experiment [8], the binding result is on record as “binds”.

B4: untagged PLXDC1 (copurification) (receptor, UniProt Q8IUK5 19-500)
chain: T1 sequence
B4: in experiment [1], the binding result is “no binding”.

B5: HA-tagged full length PLXDC1 (receptor, UniProt Q8IUK5 19-500)
chain: T1 sequence
On to B5, for which the binding result in experiment [2] is on record as “binds”.

B6: PLXDC1-C500S fused to CFP (receptor, UniProt Q8IUK5 19-500)
chain: T1 sequence with C482S
In the case of B6, the binding entry in experiment [9] is given as “binds”.
